In paper PMC10617600:
Results are given in words; binding and its absence hold for the method and conditions named. In cells and extracts the contact can be indirect. Some binding calls cover weakened binding; strength is not graded here.

Columns and labels:
Assay in all cases: split reporter; BiFC with VN and VC fragments of Venus in living yeast cells (haploid; diploid for Cdc10–Cdc10; WT and axl2Δ), YFP imaging at ∼24°C
Cdc10–VC (S. cerevisiae) = target: T1, Cdc10–VC (S. cerevisiae) (UniProt P25342)
T1 sequence: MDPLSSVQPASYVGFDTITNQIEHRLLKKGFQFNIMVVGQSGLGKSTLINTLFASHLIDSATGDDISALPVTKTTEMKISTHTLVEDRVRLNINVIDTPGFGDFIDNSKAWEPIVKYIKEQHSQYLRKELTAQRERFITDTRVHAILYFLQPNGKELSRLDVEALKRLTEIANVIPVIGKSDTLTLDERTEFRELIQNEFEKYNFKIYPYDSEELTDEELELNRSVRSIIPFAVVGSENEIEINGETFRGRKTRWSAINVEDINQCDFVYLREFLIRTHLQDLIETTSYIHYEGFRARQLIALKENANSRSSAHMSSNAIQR

Cdc12–VC (S. cerevisiae) = target: T2, Cdc12–VC (S. cerevisiae) (UniProt P32468)
T2 sequence: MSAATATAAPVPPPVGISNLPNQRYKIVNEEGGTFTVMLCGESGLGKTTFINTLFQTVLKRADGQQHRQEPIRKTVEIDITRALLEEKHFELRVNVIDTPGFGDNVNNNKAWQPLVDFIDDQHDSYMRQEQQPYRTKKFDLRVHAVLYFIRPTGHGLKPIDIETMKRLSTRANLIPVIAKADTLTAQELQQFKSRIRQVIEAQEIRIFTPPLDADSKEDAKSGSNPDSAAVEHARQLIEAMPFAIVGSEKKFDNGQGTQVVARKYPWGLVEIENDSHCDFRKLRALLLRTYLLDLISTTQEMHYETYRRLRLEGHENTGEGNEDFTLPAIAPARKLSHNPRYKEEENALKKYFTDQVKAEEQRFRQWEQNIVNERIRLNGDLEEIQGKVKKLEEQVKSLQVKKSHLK

[1] = target: T3, Cdc11ΔC–VC (S. cerevisiae) (UniProt P32458)
T3 sequence: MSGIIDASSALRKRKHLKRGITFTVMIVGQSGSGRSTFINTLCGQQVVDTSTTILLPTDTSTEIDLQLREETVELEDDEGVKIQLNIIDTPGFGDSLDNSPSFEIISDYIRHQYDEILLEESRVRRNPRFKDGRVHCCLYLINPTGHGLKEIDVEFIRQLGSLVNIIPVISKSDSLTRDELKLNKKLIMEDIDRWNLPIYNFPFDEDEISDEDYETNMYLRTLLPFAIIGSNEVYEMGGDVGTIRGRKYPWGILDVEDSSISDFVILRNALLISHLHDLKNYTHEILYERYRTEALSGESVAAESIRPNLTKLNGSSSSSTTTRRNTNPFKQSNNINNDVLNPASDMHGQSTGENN

Cdc11–VC (S. cerevisiae) = target: T4, Cdc11–VC (S. cerevisiae) (UniProt P32458)
T4 sequence: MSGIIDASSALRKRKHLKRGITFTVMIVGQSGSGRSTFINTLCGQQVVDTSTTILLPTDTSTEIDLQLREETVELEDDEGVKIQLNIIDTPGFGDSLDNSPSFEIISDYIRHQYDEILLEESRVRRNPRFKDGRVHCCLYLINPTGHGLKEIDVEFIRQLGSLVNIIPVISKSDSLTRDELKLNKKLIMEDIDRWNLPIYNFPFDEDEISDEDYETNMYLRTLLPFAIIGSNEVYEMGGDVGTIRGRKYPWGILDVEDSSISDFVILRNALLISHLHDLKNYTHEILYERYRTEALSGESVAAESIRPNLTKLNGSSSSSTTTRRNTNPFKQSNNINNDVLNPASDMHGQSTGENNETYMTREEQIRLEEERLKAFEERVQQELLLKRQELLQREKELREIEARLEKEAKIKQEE

B1: Axl2–VN (protein, UniProt P38928 23-823)
chain: TPYEAYPIGKQYPPVARVNESFTFQISNDTYKSSVDKTAQITYNCFDLPSWLSFDSSSRTFSGEPSSDLLSDANTTLYFNVILEGTDSADSTSLNNTYQFVVTNRPSISLSSDFNLLALLKNYGYTNGKNALKLDPNEVFNVTFDRSMFTNEESIVSYYGRSQLYNAPLPNWLFFDSGELKFTGTAPVINSAIAPETSYSFVIIATDIEGFSAVEVEFELVIGAHQLTTSIQNSLIINVTDTGNVSYDLPLNYVYLDDDPISSDKLGSINLLDAPDWVALDNATISGSVPDELLGKNSNPANFSVSIYDTYGDVIYFNFEVVSTTDLFAISSLPNINATRGEWFSYYFLPSQFTDYVNTNVSLEFTNSSQDHDWVKFQSSNLTLAGEVPKNFDKLSLGLKANQGSQSQELYFNIIGMDSKITHSNHSANATSTRSSHHSTSTSSYTSSTYTAKISSTSAAATSSAPAALPAANKTSSHNKKAVAIACGVAIPLGVILVALICFLIFWRRRRENPDDENLPHAISGPDLNNPANKPNQENATPLNNPFDDDASSYDDTSIARRLAALNTLKLDNHSATESDISSVDEKRDSLSGMNTYNDQFQSQSKEELLAKPPVQPPESPFFDPQNRSSSVYMDSEPAVNKSWRYTGNLSPVSDIVRDSYGSQKTVDTEKLFDLEAPEKEKRTSRDVTMSSLDPWNSNISPSPVRKSVTPSPYNVTKHRNRHLQNIQDSQSGKNGITPTTMSTSSSDDFVPVKDGENFCWVHSMEPDRRPSKKRLVDFSNKSNVNVGQVKDIHGRIPEML
With B1 the binding (Cdc10–VC (S. cerevisiae)) was “binds”, the binding (Cdc12–VC (S. cerevisiae)) was “no binding” and the binding [1] was “no binding”. The binding (Cdc11–VC (S. cerevisiae)) was “no binding”.
